In PubChem BioAssay (NCATS):
Inconclusive results, whose numbers are uncertain, are shown with a selection of clear calls. Potencies of inconclusive entries are doubtful fits and often do not repeat. Active and inactive are the calls of the source. The call rests on the fitted dose curve; in most records, active means well fitted curve in the direction sought with a large enough effect; inconclusive means small, poorly fitted or top-dose-only effect, or another doubt; inactive means no such curve, though single readings can be large; an effect the other way counts as inactive or inconclusive.

Key:
[1] = Quantitative High-Throughput drug screen in 47 multiple myeloma cell lines against the NCATS MIPE library collection: FR4_PLB cell viability assay (AID 1918924; further: nearly all actives have a fitted effect of over 35% in size)
Outline: (§1)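 Inhibition of cell viability is measured here. Each line was plated at 500 cells per well, treated with MIPE 4.0 drugs, kept 48 hours at 37C, then assayed for ATP content by CellTiter-Glo luminescence.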

[2] = Quantitative High-Throughput drug screen in 47 multiple myeloma cell lines against the NCATS MIPE library collection: Delta47_JCRB cell viability assay (AID 1918925; further: nearly all actives have a fitted effect of over 45% in size); conditions: Delta47 myeloma viability, CellTiter-Glo ATP, 48 h; viability (% of DMSO): at 45.8 µM (top of the series)
Outline: (§2)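 CellTiter-Glo luminescence (ATP) after 48 h compound exposure, 37C/5% CO2; 500 cells/well; MIPE 4.0 approved/investigational drugs pinned in; DMSO = 100%, media only = 0% viability.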

[3] = Quantitative High-Throughput drug screen in 47 multiple myeloma cell lines against the NCATS MIPE library collection: AMO1_DSMZ cell viability assay (AID 1918927; further: nearly all actives have a fitted effect of over 30% in size)
Outline: as §2

[4] = Quantitative High-Throughput drug screen in 47 multiple myeloma cell lines against the NCATS MIPE library collection: ARP1_JJKsccF8 cell viability assay (AID 1918928; further: nearly all actives have a fitted effect of over 40% in size)
Outline: (§3)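 Myeloma cells at 500 per well in 1536-well format treated with MIPE 4.0 library by pin transfer for 48 h at 37C, 5% CO2. Viability from ATP luminescence (CellTiter-Glo), normalized to DMSO (100%) and media-only (0%) wells.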

[5] = Quantitative High-Throughput drug screen in 47 multiple myeloma cell lines against the NCATS MIPE library collection: ARD_JJKsccE7 cell viability assay (AID 1918929); conditions: ARD myeloma cell line viability, CellTiter-Glo, 48 h; viability: at 45.8 µM (top of the series)
Outline: as §2

[6] = Quantitative High-Throughput drug screen in 47 multiple myeloma cell lines against the NCATS MIPE library collection: KMM1_JCRB cell viability assay (AID 1918960); conditions: KMM1 myeloma viability, CellTiter-Glo ATP luminescence, 48 h; viability (% of DMSO): at 45.8 µM (top of the series); further: nearly all actives have a fitted effect of over 30% in size
Outline: as §3

[7] = Quantitative High-Throughput drug screen in 47 multiple myeloma cell lines against the NCATS MIPE library collection: Karpas417_ECACC cell viability assay (AID 1918961); conditions: Karpas417 myeloma viability, CellTiter-Glo ATP luminescence, 48 h; viability (% of DMSO): at 45.8 µM (top of the series)
Outline: (§4)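 qHTS of the MIPE 4.0 collection: 500 myeloma cells/well, 48 h drug exposure at 37C in 5% CO2, then CellTiter-Glo for 5 min at room temperature before luminescence reading.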

[8] = Quantitative High-Throughput drug screen in 47 multiple myeloma cell lines against the NCATS MIPE library collection: KHM11_PLB cell viability assay (AID 1918962); conditions: KHM11 myeloma cell viability, CellTiter-Glo ATP luminescence, 48 h; series mostly up to 45.8 µM; further: nearly all actives have a fitted effect of over 35% in size
Outline: as §1

[9] = Quantitative High-Throughput drug screen in 47 multiple myeloma cell lines against the NCATS MIPE library collection: JIM3_ECACC cell viability assay (AID 1918963; further: nearly all actives have a fitted effect of over 35% in size)
Outline: as §1

[10] = Quantitative High-Throughput drug screen in 47 multiple myeloma cell lines against the NCATS MIPE library collection: JIM1_ECACC cell viability assay (AID 1918964); conditions: JIM1 myeloma viability, CellTiter-Glo ATP luminescence, 48 h; viability (% of DMSO): at 45.8 µM (top of the series)
Outline: as §2

[11] = Quantitative High-Throughput drug screen in 47 multiple myeloma cell lines against the NCATS MIPE library collection: JJN3_DSMZ cell viability assay (AID 1918966; further: nearly all actives have a fitted effect of over 50% in size); conditions: JJN3 myeloma cells viability, CellTiter-Glo ATP, 48 h; viability, % of DMSO: at 45.8 µM (top of the series)
Outline: as §2

[12] = Quantitative High-Throughput drug screen in 47 multiple myeloma cell lines against the NCATS MIPE library collection: H1112_PLB cell viability assay (AID 1918967; further: nearly all actives have a fitted effect of over 30% in size)
Outline: as §2

[13] = Quantitative High-Throughput drug screen in 47 multiple myeloma cell lines against the NCATS MIPE library collection: KMS27_JCRB cell viability assay (AID 1918970); conditions: KMS27 myeloma cells, CellTiter-Glo ATP viability, 48 h; viability (% of DMSO): at 45.8 µM (top of the series); further: nearly all actives have a fitted effect of over 30% in size
Outline: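 Each line is seeded at 500 cells per well and treated with library compounds for 48 hours under 37 °C, 5% CO2. CellTiter-Glo is then added for 5 min at room temperature before median relative luminescence is recorded.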

[14] = Quantitative High-Throughput drug screen in 47 multiple myeloma cell lines against the NCATS MIPE library collection: INA6_PLB cell viability assay (AID 1918965; further: nearly all actives have a fitted effect of over 55% in size); conditions: INA6 myeloma viability, CellTiter-Glo ATP luminescence, 48 h; viability (% of control): at 45.8 µM (top of the series)
Outline: as §4

[15] = Quantitative High-Throughput drug screen in 47 multiple myeloma cell lines against the NCATS MIPE library collection: EJM_DSMZ cell viability assay (AID 1918926; further: nearly all actives have a fitted effect of over 30% in size)
Outline: as §2

[16] = Quantitative High-Throughput drug screen in 47 multiple myeloma cell lines against the NCATS MIPE library collection: Karpas25_ECACC cell viability assay (AID 1918968; further: nearly all actives have a fitted effect of over 35% in size); conditions: Karpas25 myeloma viability, CellTiter-Glo ATP, 48 h; viability (% of control): at 45.8 µM (top of the series)
Outline: as §2

[17] = Quantitative High-Throughput drug screen in 47 multiple myeloma cell lines against the NCATS MIPE library collection: Karpas620_DSMZ cell viability assay (AID 1918959); conditions: Karpas620 myeloma viability, CellTiter-Glo ATP luminescence, 48 h; viability (% of DMSO): at 45.8 µM (top of the series); further: nearly all actives have a fitted effect of over 30% in size
Outline: as §1

Measured: Potency
Potency means the concentration at half of the fitted maximal effect.

Oc1ccc(C=Cc2cc(O)cc(O)c2)cc1
inactive: [3] | [5] | [6] | [10] | [13]
inconclusive: [1] 20.9 µM [cytotoxic, single point] | [2] 5.9 µM [cytotoxic, partial curve, poor fit] | [7] 10.5 µM [rising, partial curve, poor fit] | [8] 0.148 µM [cytotoxic, full curve, poor fit] | [9] 13.2 µM [cytotoxic, partial curve, poor fit] | [11] 5.26 µM [cytotoxic, partial curve, poor fit] | [12] 33.2 µM [cytotoxic, partial curve, poor fit]
active: [4] 13.2 µM

CC(C)NCC(O)c1ccc(O)c(O)c1 (stereo unspecified)
inconclusive: [1] 18.7 µM [cytotoxic, single point] | [2] 1.66 µM [cytotoxic, partial curve, poor fit] | [4] 16.6 µM [cytotoxic, partial curve] | [14] 23.5 µM [cytotoxic, partial curve, poor fit]
active: [6] 2.64 µM | [7] 1.48 µM | [10] 13.2 µM
inactive: [8] | [9]

CC[C@]1(O)C[C@@H]2CN(CCc3c([nH]c4ccccc34)[C@@](C(=O)OC)(c3cc4c(cc3OC)N(C=O)[C@@H]3C45CCN4CC=C[C@](CC)([C@H]45)[C@@H](OC(C)=O)[C@]3(O)C(=O)OC)C2)C1 (stereo partly specified)
inactive: [5] | [7] | [10]
active: [1] 20.9 µM | [11] 20.9 µM
inconclusive: [15] 18.7 µM [cytotoxic, partial curve] | [3] 0.0037 µM [cytotoxic, full curve, poor fit] | [4] 29.6 µM [cytotoxic, single point] | [8] 37.2 µM [cytotoxic, single point] | [9] 18.7 µM [cytotoxic, partial curve] | [14] 11.8 µM [cytotoxic, partial curve, poor fit] | [12] 18.7 µM [cytotoxic, partial curve] | [16] 18.7 µM [cytotoxic, partial curve]

CO[C@H]1O[C@@H]2O[C@@]3(C)CC[C@@H]4[C@@H](C)CC[C@@H]([C@H]1C)[C@@]24OO3
inactive: [1]
active: [3] 1.87 µM | [11] 5.9 µM
inconclusive: [2] 26.4 µM [cytotoxic, partial curve, poor fit] | [5] 1.66 µM [cytotoxic, partial curve, poor fit] | [17] 0.132 µM [cytotoxic, partial curve, poor fit] | [7] 1.32 µM [cytotoxic, full curve, poor fit] | [8] 5.9 µM [cytotoxic, partial curve, poor fit] | [9] 5.26 µM [cytotoxic, partial curve, poor fit] | [10] 0.0372 µM [cytotoxic, full curve, poor fit] | [13] 37.2 µM [rising, single point]

C[C@@H]1CN(Cc2ccc(F)cc2)[C@@H](C)CN1C(=O)c1cc2c(C(=O)C(=O)N(C)C)cn(C)c2cc1Cl
active: [3] 29.6 µM | [5] 9.35 µM | [16] 9.35 µM
inconclusive: [1] 33.2 µM [cytotoxic, single point] | [15] 7.43 µM [cytotoxic, partial curve] | [4] 33.2 µM [cytotoxic, single point] | [17] 26.4 µM [cytotoxic, single point] | [6] 18.7 µM [cytotoxic, partial curve] | [8] 20.9 µM [cytotoxic, partial curve, poor fit] | [10] 20.9 µM [cytotoxic, partial curve, poor fit] | [11] 37.2 µM [cytotoxic, single point]

Ordered by SMILES length (descending): some entries from above.
C[C@@H]1CN(Cc2ccc(F)cc2)[C@@H](C)CN1C(=O)c1cc2c(C(=O)C(=O)N(C)C)cn(C)c2cc1Cl
active: [3] 29.6 µM | [5] 9.35 µM | [16] 9.35 µM
inconclusive: [1] 33.2 µM [cytotoxic, single point] | [15] 7.43 µM [cytotoxic, partial curve] | [4] 33.2 µM [cytotoxic, single point] | [17] 26.4 µM [cytotoxic, single point] | [6] 18.7 µM [cytotoxic, partial curve] | [8] 20.9 µM [cytotoxic, partial curve, poor fit] | [10] 20.9 µM [cytotoxic, partial curve, poor fit] | [11] 37.2 µM [cytotoxic, single point]

Oc1ccc(C=Cc2cc(O)cc(O)c2)cc1
inactive: [3] | [5] | [6] | [10] | [13]
inconclusive: [1] 20.9 µM [cytotoxic, single point] | [2] 5.9 µM [cytotoxic, partial curve, poor fit] | [7] 10.5 µM [rising, partial curve, poor fit] | [8] 0.148 µM [cytotoxic, full curve, poor fit] | [9] 13.2 µM [cytotoxic, partial curve, poor fit] | [11] 5.26 µM [cytotoxic, partial curve, poor fit] | [12] 33.2 µM [cytotoxic, partial curve, poor fit]
active: [4] 13.2 µM

CC(C)NCC(O)c1ccc(O)c(O)c1 (stereo unspecified)
inconclusive: [1] 18.7 µM [cytotoxic, single point] | [2] 1.66 µM [cytotoxic, partial curve, poor fit] | [4] 16.6 µM [cytotoxic, partial curve] | [14] 23.5 µM [cytotoxic, partial curve, poor fit]
active: [6] 2.64 µM | [7] 1.48 µM | [10] 13.2 µM
inactive: [8] | [9]

Carrying on.

CCNC(=O)c1noc(-c2cc(C(C)C)c(O)cc2O)c1-c1ccc(CN2CCOCC2)cc1
inconclusive: [1] 0.0833 µM [cytotoxic, full curve, poor fit] | [15] 0.0209 µM [cytotoxic, full curve, poor fit] | [3] 0.0296 µM [cytotoxic, full curve, poor fit] | [4] 0.0833 µM [cytotoxic, full curve, poor fit] | [5] 0.0469 µM [cytotoxic, full curve, poor fit] | [17] 3.72 µM [rising, full curve, poor fit] | [6] 3.32 µM [rising, full curve, poor fit] | [7] 0.0332 µM [cytotoxic, full curve, poor fit] | [10] 13.2 µM [rising, partial curve, poor fit] | [11] 0.0526 µM [cytotoxic, full curve, poor fit] | [12] 0.0469 µM [cytotoxic, full curve, poor fit]
active: [8] 0.0833 µM | [14] 0.0833 µM

COCCCN1CCC(NC(=O)c2cc(Cl)c(N)c3c2OCC3)CC1
active: [2] 18.7 µM | [6] 20.9 µM | [9] 18.7 µM | [13] 18.7 µM
inconclusive: [1] 37.2 µM [cytotoxic, single point] | [15] 14.8 µM [cytotoxic, partial curve, poor fit] | [4] 14.8 µM [cytotoxic, partial curve, poor fit] | [17] 33.2 µM [cytotoxic, single point] | [7] 46.9 µM [cytotoxic, partial curve, poor fit] | [8] 1.66 µM [rising, partial curve] | [11] 37.2 µM [cytotoxic, single point] | [12] 26.4 µM [cytotoxic, single point] | [16] 26.4 µM [cytotoxic, single point]

CC(C(=O)O)c1ccc(-c2ccccc2)c(F)c1 (stereo unspecified)
inconclusive: [2] 20.9 µM [cytotoxic, partial curve, poor fit] | [3] 3.32 µM [cytotoxic, full curve, poor fit] | [4] 0.833 µM [cytotoxic, full curve, poor fit] | [8] 23.5 µM [cytotoxic, partial curve] | [9] 23.5 µM [cytotoxic, partial curve, poor fit] | [13] 0.0023 µM [cytotoxic, full curve, poor fit]
inactive: [1] | [10] | [11]

O=C(O)Cc1cccc(OCCCN(Cc2cccc(C(F)(F)F)c2Cl)CC(c2ccccc2)c2ccccc2)c1
inactive: [1] | [17]
inconclusive: [2] 20.9 µM [cytotoxic, partial curve, poor fit] | [15] 23.5 µM [cytotoxic, partial curve, poor fit] | [4] 29.6 µM [cytotoxic, single point] | [7] 2.96 µM [cytotoxic, partial curve, poor fit] | [8] 10.5 µM [cytotoxic, partial curve, poor fit] | [9] 20.9 µM [cytotoxic, partial curve] | [10] 0.118 µM [rising, full curve, poor fit] | [14] 14.8 µM [cytotoxic, partial curve, poor fit] | [12] 23.5 µM [cytotoxic, partial curve] | [16] 37.2 µM [cytotoxic, single point] | [13] 37.2 µM [cytotoxic, single point]

O=C(NCC1CCCCN1)c1cc(OCC(F)(F)F)ccc1OCC(F)(F)F (stereo unspecified)
inactive: [15] | [11]
inconclusive: [1] 0.0093 µM [cytotoxic, full curve, poor fit] | [4] 33.2 µM [cytotoxic, single point]
active: [2] 8.33 µM | [7] 0.0743 µM | [9] 8.33 µM | [12] 8.33 µM | [16] 9.35 µM

C[C@H](NC(=O)C(=O)Nc1ccccc1C(C)(C)C)C(=O)N[C@@H](CC(=O)O)C(=O)COc1c(F)c(F)cc(F)c1F
active: [3] 4.69 µM | [6] 1.66 µM | [14] 18.7 µM
inconclusive: [1] 0.0019 µM [rising, full curve, poor fit] | [8] 0.935 µM [rising, full curve, poor fit] | [11] 2.64 µM [cytotoxic, full curve, poor fit]
inactive: [2]

Cc1ccc(-n2nc(C(C)(C)C)cc2NC(=O)Nc2ccc(OCCN3CCOCC3)c3ccccc23)cc1
inconclusive: [1] 37.2 µM [cytotoxic, single point] | [4] 0.0037 µM [cytotoxic, full curve, poor fit] | [5] 6.62 µM [cytotoxic, partial curve, poor fit] | [6] 16.6 µM [cytotoxic, partial curve] | [8] 0.0166 µM [rising, full curve, poor fit] | [10] 1.32 µM [cytotoxic, full curve, poor fit] | [14] 37.2 µM [cytotoxic, single point] | [11] 26.4 µM [cytotoxic, single point] | [13] 14.8 µM [cytotoxic, partial curve, poor fit]
active: [2] 2.64 µM
